PubChem BioAssay AID504786 – Drosophila RNAi Screening Center | 2011
Test: 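Knock-downs reducing HIF reporter induction by the iron chelator DFO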 (primary screen). Cell system: Drosophila S2 cells with a stable HIF luciferase reporter. Knock-down reagent: long dsRNA against Drosophila genes, about 0.2 µg dsRNA per well of a 384-well plate. Timing: three days of knock-down, then 20 h of DFO before reading. Challenge: desferrioxamine (DFO) at 100 µM, an iron chelator that mimics hypoxia, for 20 h. Measurement: 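Firefly luciferase driven by the mouse ldh-a hypoxia-response element, measured after 20 h of 100 µM DFO; z-scores per plate, higher means more signal lost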. Scale: z-score: higher = stronger loss of HIF reporter signal.
In all, the deposit lists about 21,000 reagents; below is a random part of those with a known target gene and a result. 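Primary screen; positive scores mean lost reporter signal, so the sign may be inverted from the usual convention.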 A plus sign joins genes that one reagent is predicted to hit.

target gene,DRSC id,"z-score, replicate 1","z-score, replicate 2","z-score, replicate 3","z-score, replicate 4"
CG13086,DRSC02190,-0.3,-0.5,,
CG10550,DRSC14251,-0.3,-0.3,,
Socs44A (Suppressor of Cytokine Signaling at 44A),DRSC06828,-0.1,-0.3,,
Lcp65Ab2 + Lcp65Ab1,DRSC10340,-0.3,-0.7,,
Lcp65Ab2 + Lcp65Ab1,DRSC10343,-0.3,-0.5,,
bcd (bicoid),DRSC12624,-0.4,-0.9,,
CG5708,DRSC02881,-0.2,-0.2,,
Cep89 (Centrosomal protein 89kDa),DRSC07110,-0.2,-0.3,,
PAPLA1 (Phosphatidic Acid Phospholipase A1),DRSC03095,-0.3,-0.6,,
PAPLA1 (Phosphatidic Acid Phospholipase A1),DRSC03096,-0.4,-0.4,,
Pex16 (Peroxin 16),DRSC11750,-0.3,-0.6,,
CG10862,DRSC08170,-0.1,-0.3,,
CG8298,DRSC07138,-0.2,-0.4,,
Or22c (Odorant receptor 22c),DRSC00766,-0.2,-0.3,,
Nep2 (Neprilysin 2),DRSC12126,-0.2,-0.1,,
Slik (Sterile20-like kinase),DRSC04471,-0.2,0.1,,
mRpL32 (mitochondrial ribosomal protein L32),DRSC14479,2.1,1.2,,
ecd (ecdysoneless),DRSC08574,-0.3,-0.5,,
Orc6 (Origin recognition complex subunit 6),DRSC07497,-0.2,0,,
ohgt (ohgata),DRSC15521,-0.4,0,,
TMEM216 (Transmembrane protein 216),DRSC16378,-0.2,-0.5,,
mRpS9 (mitochondrial ribosomal protein S9),DRSC12645,0.8,0.2,,
mRpS9 (mitochondrial ribosomal protein S9),DRSC15456,0.9,0.4,0.5,2
CG8578,DRSC20114,-0.3,-0.4,,
Aplip1 (APPL-interacting protein 1),DRSC07947,-0.2,0.3,,
Aplip1 (APPL-interacting protein 1),DRSC08697,-0.3,-0.3,,
MAN1,DRSC04342,-0.3,-0.4,,
r2d2,DRSC03014,0,0,,
CG6785,DRSC02993,0,-0.4,,
Tsp42Ej (Tetraspanin 42Ej),DRSC06113,-0.3,0.3,,
CG32075,DRSC10622,-0.1,-0.2,,
CG30496,DRSC06805,-0.3,0.1,,
kuz (kuzbanian),DRSC03555,-0.3,0.2,,
CG13127,DRSC02223,-0.1,0,,
jing,DRSC04923,-0.3,-0.5,,
jing,DRSC04927,0.1,-0.2,,
jing,DRSC05000,0.7,0.9,,
CkIIalpha-i1 (CKII-alpha subunit interactor-1),DRSC11115,-0.3,-0.2,,
Rac1,DRSC08688,0.6,1.1,,
COX1 (retired record),DRSC21275,-0.3,-0.4,,
"MetRS-m (Methionyl-tRNA synthetase, mitochondrial)",DRSC16443,-0.3,-0.1,,
"MetRS-m (Methionyl-tRNA synthetase, mitochondrial)",DRSC16515,-0.4,-0.5,,
CG15345 (retired record),DRSC18030,-0.3,-0.6,1,0
CG1688,DRSC05934,-0.2,-0.4,,
dgrn (degringolade),DRSC12154,-0.3,-0.5,,
mRpS14 (mitochondrial ribosomal protein S14),DRSC19444,0.7,0.4,,
Cdc45 (Cell division cycle 45),DRSC17747,1.6,1.8,,
Cdc45 (Cell division cycle 45),DRSC18164,-0.3,-0.4,,
TwdlK (TweedleK),DRSC16045,2.4,0.9,,
CG13560,DRSC04198,-0.4,-0.1,,
CG17824 (retired record),DRSC10288,-0.3,-1.1,,
CG34049,DRSC00104,1.4,0.5,,
sav (salvador),DRSC14681,-0.6,-0.8,,
sav (salvador),DRSC14682,-0.7,-0.8,,
NimB4 (Nimrod B4),DRSC01884,-0.4,-0.1,,
CG7953,DRSC01902,-0.3,-0.1,,
dbe (dribble),DRSC00811,-0.1,0.4,,
fun (retired record),DRSC12300,-0.4,-0.6,,
CG6712,DRSC02981,-0.4,-0.7,,
krimp (krimper),DRSC06578,-0.3,-0.3,,
cos (costa),DRSC07598,-0.3,-0.7,,
CG17806,DRSC15276,-0.3,-0.6,,
CG13198,DRSC06323,-0.1,-0.6,,
Uba1 (Ubiquitin activating enzyme 1),DRSC07567,-0.4,1,,
Tmem131 (Transmembrane protein 131),DRSC07154,-0.3,-0.5,,
CG7945,DRSC10934,-0.4,-0.6,,
porin,DRSC03594,-0.4,-0.7,,
CG14207,DRSC19562,-0.3,-0.2,,
CG14207,DRSC19563,-0.3,-0.6,,
Uev1A (Ubiquitin-conjugating enzyme variant 1A),DRSC09763,-0.5,-1,,
mthl1 (methuselah-like 1),DRSC19905,-0.2,-0.3,,
Kaz1-ORFB + Kaz1-ORFA,DRSC08669,-0.3,0.7,,
Pal1 + Pdrg1,DRSC06587,-0.3,-0.1,,
qjt (quijote),DRSC10060,-0.2,-0.1,,
CG15202,DRSC19649,-0.3,-0.5,,
CG7707,DRSC10903,-0.1,0.2,,
thetaTry (thetaTrypsin),DRSC07705,-0.3,-0.3,,
CG13384,DRSC02258,-0.3,-0.1,,
Nle (Notchless),DRSC00763,-0.3,-0.5,,
Nt5a (5' nucleotidase A),DRSC08561,-0.2,-0.3,,
ab (abrupt),DRSC03478,1.4,0.9,,
CG1024,DRSC12496,0.9,2.1,,
robo3 (roundabout 3),DRSC00374,-0.2,-0.6,,
robo3 (roundabout 3),DRSC00375,-0.1,-0.3,,
robo3 (roundabout 3),DRSC00684,-0.3,0.1,,
